Assay results taken from paper PMC5218808.
These are yes or no findings as the source states them, for the method shown. Binding seen in cells or lysates may run through a third protein. A result given as binding can be weak or reduced; the word gives no strength. Where a sequence is shown, tags or fusion partners need not be part of it.

Molecular target: Myc-tagged ITCH
Experiment: co-IP; HEK293T cells co-transfected with Flag-DUB3 and Myc-ITCH, 5 uM MG132 overnight, lysed in PLC buffer; immunoprecipitation with anti-Flag or anti-Myc beads, 2 hours at 4°C; blots with anti-Flag and anti-Myc

B1: Flag-tagged DUB3 (USP17L17 isoform of DUB3) (enzyme, UniProt D6RBQ6 1-530)
chain: MEDDSLYLGGEWQFNHFSKLTSSRPDAAFAEIQRTSLPEKSPLSCETRVDLCDDLAPVARQLAPREKLPLSSRRPAAVGAGLQNMGNTCYVNASLQCLTYTPPLANYMLSREHSQTCHRHKGCMLCTMQAHITRALHNPGHVIQPSQALAAGFHRGKQEDAHEFLMFTVDAMKKACLPGHKQVDHHSKDTTLIHQIFGGYWRSQIKCLHCHGISDTFDPYLDIALDIQAAQSVQQALEQLVKPEELNGENAYHCGVCLQRAPASKTLTLHTSAKVLILVLKRFSDVTGNKIAKNVQYPECLDMQPYMSQQNTGPLVYVLYAVLVHAGWSCHNGHYFSYVKAQEGQWYKMDDAEVTAASITSVLSQQAYVLFYIQKSEWERHSESVSRGREPRALGAEDTDRRATQGELKRDHPCLQAPELDEHLVERATQESTLDHWKFLQEQNKTKPEFNVRKVEGTLPPDVLVIHQSKYKCGMKNHHPEQQSSLLNLSSSTPTHQESMNTGTLASLRGRARRSKGKNKHSKRALLVCQ
**Q.** B1 was tested. Which binding did it give?
**A.** binds
